## Library screen at single concentrations

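Whole-cell growth test on Mycobacterium tuberculosis, read after 4 days in a medium based on cholesterol and the lipid DPPC; the read-out is not stated. Compounds at 500 µM. The record gives no direction; compounds that gave an IC50 in retests scored well above the rest, so higher reads as more growth inhibition. Size under these conditions: about 18,000 compounds, about 900 of them at 50% or above in at least one test.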

Values are the deposited “Percent Effect”, in %.
The record does not define 0% and 100%; most values in the screen are far below 50% and negative numbers occur (in some assays of this library far below -100).
This is an unselected part of the compounds tested.

| SMILES | percent effect |
|---|---|
| `CN1C(=O)C(N)c2cc(Br)ccc21` (centres unmarked) | -6.53 |
| `CC1=CC(=O)N(C2CCCC2)C1=O` | -25.59 |
| `COC(=O)NCC(=O)Nc1cc2c(cc1Br)OCCO2` | -3.255 |
| `O=C1CCCc2sccc2N1` | -14.96 |
| `N#Cc1ccnc(NCCC(=O)NC2CCCCC2)c1` | -29.18 |
| `COCC1CCCN(CC(=O)NCC(F)(F)F)C1` (centres unmarked) | -0.5485 |
| `Cc1ccc(NC(=O)[C@H](C)N(C)C)cc1C` | 1.834 |
| `COCc1nn(CC(=O)N(C)C2CCCCC2)c(=O)o1` | 33.12 |
| `COc1ccc(CCC(=O)N(C)CC(N)=O)cc1Br` | 17.25 |
| `Cc1ccnc(NCCOCCS(C)(=O)=O)c1` | -14.19 |
| `CC(O)c1c(F)cccc1OCCN(C)C` (centres unmarked) | 0.3131 |
| `CCC(CNC(=O)c1ccco1)N1CCCC1` (centres unmarked) | -5.595 |
| `NC(=O)C1(NCc2ccc(Br)c3cccnc23)CC1` | -10.09 |
| `CN(C)CCSCc1noc(C2CCOCC2)n1` | 0.9395 |
| `CC(C)COc1ccc(NC(=O)C2CCOC2)cn1` (centres unmarked) | -89.45 |
| `O=C(NC1CCCc2[nH]c(=O)ccc21)c1cc(Br)c[nH]1` (centres unmarked) | 8.261 |
| `Cc1ccc(F)c(NS(C)(=O)=O)c1` | 16.85 |
| `COCc1cc(CNC(=O)C(NC(C)=O)C(C)C)n[nH]1` (centres unmarked) | -1.935 |
| `Cc1cnn(CC(C)NCCCS(N)(=O)=O)c1` (centres unmarked) | -9.499 |
| `CC(C)OC1CCC(N)CC1` (centres unmarked) | -23 |
| `Nc1cnccc1N1CCCC1` | -5.913 |
| `CC(C)CNc1nnc(SCCS(C)(=O)=O)s1` | 18.59 |
| `N#CCc1ccc(CN)cc1` | 74.95 |
| `CNC(=O)CC(C)N(C)Cc1nccn1CCOC` (centres unmarked) | -11.51 |
| `CN(C)CCOc1cc(N)ccn1` | 6.899 |
| `O=C(NCCNc1ncccn1)c1ccc(O)c(Cl)c1` | 10.91 |
| `Fc1cccc(-c2noc(C3CCCN3)n2)c1` (centres unmarked) | 49.23 |
| `c1cncc(CN2CCC(N3CCCC3)CC2)c1` | 13.39 |
| `CCN(C)S(=O)(=O)N(CC(C)O)C1CCCCC1` (centres unmarked) | 4.051 |
| `N[C@H]1CN(C(=O)CCCc2cn[nH]c2)C[C@@H]1C1CC1` | -3.814 |
| `CC(NC(=O)CCNC(=O)c1ccco1)c1cccs1` (centres unmarked) | 19.17 |
| `CCOC(=O)c1ccc(S(=O)(=O)N2CCNCC2)o1` | 10.13 |
| `CC(C)(C)NC(=O)CNc1c(F)cc(C#N)cc1F` | 19.72 |
| `CC(C)(C)OC(=O)c1cncc(N)c1` | 2.29 |
| `CC(C)(C)C1CNCCO1` (centres unmarked) | 2.471 |
| `CCCc1nnc(N2CCC3(CC2)OCC(C)O3)s1` (centres unmarked) | 88.75 |
| `O=C(CSCC(=O)N1CCNC1=O)Nc1ccccc1` | -8.354 |
| `Cc1cc(C)c(CNC(=O)CCNS(C)(=O)=O)cn1` | -15.43 |
| `CCNC(=O)CN(CC)CC(=O)Nc1cc(C)no1` | 7.429 |
| `CN(CCNC(=O)c1cnc[nH]1)Cc1ccc(F)cc1` | -0.2808 |
| `c1coc(C2CNCCO2)c1` (centres unmarked) | -0.00792 |
| `Cc1cccc(N2CCCC(CN3CCOCC3)C2)n1` (centres unmarked) | -18.43 |
| `Cc1cc(C2CCCN2C(=O)C2CCOCC2)on1` (centres unmarked) | 2.523 |
| `CNC(=O)c1nn(C)cc1NC(=O)c1cc(C)c(C)s1` | 14.83 |
| `COC(=O)C(CN)c1ccc(Cl)cc1` (centres unmarked) | 8.15 |
| `CCC(C)(NCc1cc(F)ccc1F)C(N)=O` (centres unmarked) | -10.5 |
| `COC(=O)CN1CCN(C(=O)N(C)C)CC1` | 5.653 |
| `Cc1cc(C(=O)N2CCc3sccc3C2)n(C)n1` | -3.981 |
| `CCN1CCN(C(=O)c2ccc(NC(C)=O)cc2)CC1` | 13.72 |
| `O=C(NCCNCc1ccccc1)c1ccco1` | 1.394 |
| `CCc1cn[nH]c1C1CCCNC1` (centres unmarked) | 11.45 |
| `Cc1cnn(CCNCCCS(C)(=O)=O)c1` | -5.206 |
| `CC(=O)c1cn2c(n1)CCCC2` | -7.779 |
| `Cc1noc(C)c1CCC(=O)Nc1cccnc1` | -7.451 |
| `CN1CCCN(C(=O)c2ccc(F)cc2)CC1` | -6.885 |
| `O=C(CCN1CCCCCC1=O)NCc1ncc[nH]1` | 9.771 |

Some entries from above, unchanged:

SMILES,percent effect
Cc1ccc(F)c(NS(C)(=O)=O)c1,16.85
Cc1cnn(CCNCCCS(C)(=O)=O)c1,-5.206
CCCc1nnc(N2CCC3(CC2)OCC(C)O3)s1 (centres unmarked),88.75

The values are deposited in ChEMBL (CHEMBL3988442, “University of Dundee, Small-Polar-MMV Screening Library” (2021)).